Experimental data published in publication doi:10.1101/2023.08.14.553285.
Results are given in words; binding and its absence hold for the method and conditions named. For part of these data: Binding seen in cells or lysates may run through a third protein. Some results given as binding are weak or reduced against the parent protein; the word gives no strength. Sequences can lack the tags named with a protein. Values belong to the binder of their own block, whether it stands above or below them.

What was measured:
[1] = target: T1, RAPTOR1B, full-length cDNA in pDEST32 (DBD fusion) for the targeted Y2H (Arabidopsis) (UniProt Q93YQ1); test: two-hybrid
T1 sequence: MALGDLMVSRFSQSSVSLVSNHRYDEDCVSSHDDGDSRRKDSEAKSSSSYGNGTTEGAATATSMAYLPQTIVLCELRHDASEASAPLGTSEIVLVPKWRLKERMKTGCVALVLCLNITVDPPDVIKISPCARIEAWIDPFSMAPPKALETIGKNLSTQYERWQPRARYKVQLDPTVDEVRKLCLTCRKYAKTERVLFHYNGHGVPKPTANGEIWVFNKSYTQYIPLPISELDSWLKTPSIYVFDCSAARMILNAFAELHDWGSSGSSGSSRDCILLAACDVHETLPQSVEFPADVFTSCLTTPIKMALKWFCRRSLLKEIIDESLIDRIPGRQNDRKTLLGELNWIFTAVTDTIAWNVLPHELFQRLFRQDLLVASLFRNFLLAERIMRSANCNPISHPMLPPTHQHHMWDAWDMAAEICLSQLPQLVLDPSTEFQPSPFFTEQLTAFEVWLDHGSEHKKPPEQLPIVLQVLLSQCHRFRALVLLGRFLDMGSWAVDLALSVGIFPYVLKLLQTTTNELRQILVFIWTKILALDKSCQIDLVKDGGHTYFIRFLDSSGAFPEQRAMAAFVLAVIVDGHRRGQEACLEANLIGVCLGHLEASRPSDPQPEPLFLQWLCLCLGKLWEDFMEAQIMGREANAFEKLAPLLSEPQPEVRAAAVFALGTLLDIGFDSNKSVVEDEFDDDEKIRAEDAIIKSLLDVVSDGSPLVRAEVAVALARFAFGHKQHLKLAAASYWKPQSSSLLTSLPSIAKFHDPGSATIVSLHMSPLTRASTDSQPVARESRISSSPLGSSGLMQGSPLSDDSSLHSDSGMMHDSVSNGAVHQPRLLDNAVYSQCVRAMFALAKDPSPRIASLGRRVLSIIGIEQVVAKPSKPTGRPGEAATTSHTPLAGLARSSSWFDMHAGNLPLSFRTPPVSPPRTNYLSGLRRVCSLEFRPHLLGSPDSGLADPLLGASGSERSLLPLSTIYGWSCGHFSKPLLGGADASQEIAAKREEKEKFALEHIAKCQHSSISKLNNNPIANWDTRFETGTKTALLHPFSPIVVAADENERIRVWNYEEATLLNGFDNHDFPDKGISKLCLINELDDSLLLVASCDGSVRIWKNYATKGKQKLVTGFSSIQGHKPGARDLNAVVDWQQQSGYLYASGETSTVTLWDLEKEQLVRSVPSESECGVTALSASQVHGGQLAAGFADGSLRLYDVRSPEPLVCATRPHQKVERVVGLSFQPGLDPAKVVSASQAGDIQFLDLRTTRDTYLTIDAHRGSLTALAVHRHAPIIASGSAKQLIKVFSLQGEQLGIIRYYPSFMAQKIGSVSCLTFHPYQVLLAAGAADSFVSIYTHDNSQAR

[2] = target: T2, RAPTOR1B-6xMyc (Arabidopsis) (UniProt Q93YQ1); test: co-IP
T2 sequence: T1 sequence

[3] = target: T3, nYFP-RAPTOR1B (Arabidopsis) (UniProt Q93YQ1); test: split reporter
T3 sequence: T1 sequence

FLZ14-3xHA (Arabidopsis) = target: T4, FLZ14-3xHA (Arabidopsis) (UniProt Q8GYX2); test: co-IP
T4 sequence: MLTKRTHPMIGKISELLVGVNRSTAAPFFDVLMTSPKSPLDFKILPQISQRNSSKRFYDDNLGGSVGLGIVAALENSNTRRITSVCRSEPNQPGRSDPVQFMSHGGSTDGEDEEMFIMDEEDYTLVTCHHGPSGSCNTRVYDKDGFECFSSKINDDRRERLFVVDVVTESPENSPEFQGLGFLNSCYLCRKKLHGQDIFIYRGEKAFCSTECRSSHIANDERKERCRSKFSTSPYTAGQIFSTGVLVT

binding [1]: binds
B1: FLZ14, full-length cDNA in pDEST22 (AD fusion) for the targeted Y2H (protein, UniProt Q8GYX2 1-248)
chain: T4 sequence

binding [2]: binds
B2: FLZ14-3xHA (protein, UniProt Q8GYX2 1-248)
chain: T4 sequence

binding [3]: binds
B3: cYFP-FLZ14 (protein, UniProt Q8GYX2 1-248)
chain: T4 sequence

binding [3]: binds
B4: FLZ14-cYFP (protein, UniProt Q8GYX2 1-248)
chain: T4 sequence

binding (FLZ14-3xHA (Arabidopsis)): binds
B5: RAPTOR1B-6xMyc (protein, UniProt Q93YQ1 1-1344)
chain: T1 sequence

binding [3]: no binding
B6: FLZ6-cYFP (protein, UniProt Q9SGZ8 1-162)
chain: MLLGKRQRPPINRTTSLSEIKFDLNLPSESEPSNQQKPTVASPYGSNGQAVTAAVDQNRGFLDQRLLSMVTPRGNLRRHSGDFSDAGHFLRSCALCERLLVPGRDIYMYRGDKAFCSSECRQEQMAQDERKEKGKSAAPAKEPAVTAPARAKPGKGRAAAAV
